{"source": "patent US4474761A", "about": "“Oligopeptides with specific inhibiting properties of collagen induced aggregation, process for preparing the same and pharmaceutical compositions containing them” (Choay S.A., priority 1980, dated 1984)", "key": {"[1]": {"test_system": "platelet aggregation induced by arachidonic acid", "test": "Platelet aggregation induced by arachidonic acid (specificity test)", "assay_type": "cell-based", "settings": "Table III; arachidonic acid 0.6 nM; 830 n moles"}, "[2]": {"test_system": "platelet aggregation induced by type III collagen", "test": "Platelet aggregation in citrated platelet rich plasma induced by type III collagen (aggregometer, Born's method)", "assay_type": "cell-based"}, "[3]": {"settings": "Table I, type III collagen 2.5 μg, 77 n moles"}, "[4]": {"settings": "Table I, type III collagen 2.5 μg, 200 n moles"}, "[5]": {"settings": "Table I, type III collagen 2.5 μg, 420 n moles"}, "[6]": {"settings": "Table I, type III collagen 2.5 μg, 610 n moles"}, "[7]": {"settings": "Table I, type III collagen 2.5 μg, 840 n moles"}, "[8]": {"settings": "Table II, collagen type III 1.25 μg, 25 n moles"}, "[9]": {"settings": "Table II, collagen type III 1.25 μg, 52 n moles"}, "[10]": {"settings": "Table II, collagen type III 1.25 μg, 105 n moles"}, "[11]": {"settings": "Table II, collagen type III 1.25 μg, 210 n moles"}, "[12]": {"settings": "Table II, collagen type III 1.25 μg, 420 n moles"}, "[13]": {"settings": "Table II, collagen type III 2.5 μg, 52 n moles"}, "[14]": {"settings": "Table II, collagen type III 2.5 μg, 105 n moles"}, "[15]": {"settings": "Table II, collagen type III 2.5 μg, 210 n moles"}, "[16]": {"settings": "Table II, collagen type III 2.5 μg, 420 n moles"}, "[17]": {"settings": "Table II, collagen type III 2.5 μg, 840 n moles"}, "[18]": {"settings": "Table IV, collagen 2 μg, amount of peptide not given"}, "[19]": {"settings": "Table IV, collagen 5 μg, 840 n moles"}}, "note": "At least one peptide structure holds a part that was inferred or is arguable (an end, a ring closure or a residue). Where a SMILES comes first, the peptide text is derived from it."}
{"compound": "NCCCC[C@H](NC(=O)[C@@H]1CCCN1C(=O)CNC(=O)[C@@H]1C[C@@H](O)CN1C(=O)[C@H](CCC(=O)O)NC(=O)CNC(=O)[C@@H]1C[C@@H](O)CN1C(=O)[C@H](CCCCN)NC(=O)CN)C(=O)O", "note": "[nonapeptide (4), Gly--Lys--Hyp--Gly--Glu--Hyp--Gly--Pro--Lys] (HELM PEPTIDE1{G.K.[Hyp].G.E.[Hyp].G.P.K}$$$$V2.0)", "values": [{"measurement": "% of inhibition of intensity", "setting": "[1]", "result": 0, "unit": "%"}, {"measurement": "% of inhibition of velocity", "setting": "[1]", "result": 0, "unit": "%"}, {"measurement": "Intensity", "setting": "[1]", "result": 79.7, "unit": "%"}, {"measurement": "Velocity", "setting": "[1]", "result": 62.3, "unit": "%"}, {"measurement": "Inhibition of platelet aggregation", "setting": "[2]; 77 n moles", "result": 65, "unit": "%"}, {"measurement": "Inhibition in platelet aggregation", "setting": "[2]; 420 n moles", "result": "total inhibition"}, {"measurement": "% of inhibition of intensity", "setting": "[2]; [3]", "result": 65, "unit": "%"}, {"measurement": "% of inhibition of velocity", "setting": "[2]; [3]", "result": 65, "unit": "%"}, {"measurement": "Insensity", "setting": "[2]; [3]", "result": 21, "unit": "%"}, {"measurement": "Velocity", "setting": "[2]; [3]", "result": 5.3, "unit": "%"}, {"measurement": "% of inhibition of intensity", "setting": "[2]; [4]", "result": 88, "unit": "%"}, {"measurement": "% of inhibition of velocity", "setting": "[2]; [4]", "result": 86, "unit": "%"}, {"measurement": "Insensity", "setting": "[2]; [4]", "result": 6.5, "unit": "%"}, {"measurement": "Velocity", "setting": "[2]; [4]", "result": 2.1, "unit": "%"}, {"measurement": "% of inhibition of intensity", "setting": "[2]; [5]", "result": 100, "unit": "%"}, {"measurement": "% of inhibition of velocity", "setting": "[2]; [5]", "result": 100, "unit": "%"}, {"measurement": "Insensity", "setting": "[2]; [5]", "result": 0, "unit": "%"}, {"measurement": "Velocity", "setting": "[2]; [5]", "result": 0, "unit": "%"}, {"measurement": "% of inhibition of intensity", "setting": "[2]; [6]", "result": 93, "unit": "%"}, {"measurement": "% of inhibition of velocity", "setting": "[2]; [6]", "result": 93, "unit": "%"}, {"measurement": "Insensity", "setting": "[2]; [6]", "result": 4, "unit": "%"}, {"measurement": "Velocity", "setting": "[2]; [6]", "result": 1, "unit": "%"}, {"measurement": "% of inhibition of intensity", "setting": "[2]; [7]", "result": 78, "unit": "%"}, {"measurement": "% of inhibition of velocity", "setting": "[2]; [7]", "result": 81, "unit": "%"}, {"measurement": "Insensity", "setting": "[2]; [7]", "result": 13.5, "unit": "%"}, {"measurement": "Velocity", "setting": "[2]; [7]", "result": 2.9, "unit": "%"}, {"measurement": "% of inhibition of intesity", "setting": "[2]; [8]", "result": 100, "unit": "%"}, {"measurement": "% of inhibition of velocity", "setting": "[2]; [8]", "result": 100, "unit": "%"}, {"measurement": "Intensity", "setting": "[2]; [8]", "result": 0, "unit": "%"}, {"measurement": "Velocity", "setting": "[2]; [8]", "result": 0, "unit": "%"}, {"measurement": "% of inhibition of intesity", "setting": "[2]; [9]", "result": 100, "unit": "%"}, {"measurement": "% of inhibition of velocity", "setting": "[2]; [9]", "result": 100, "unit": "%"}, {"measurement": "Intensity", "setting": "[2]; [9]", "result": 0, "unit": "%"}, {"measurement": "Velocity", "setting": "[2]; [9]", "result": 0, "unit": "%"}, {"measurement": "% of inhibition of intesity", "setting": "[2]; [10]", "result": 100, "unit": "%"}, {"measurement": "% of inhibition of velocity", "setting": "[2]; [10]", "result": 100, "unit": "%"}, {"measurement": "Intensity", "setting": "[2]; [10]", "result": 0, "unit": "%"}, {"measurement": "Velocity", "setting": "[2]; [10]", "result": 0, "unit": "%"}, {"measurement": "% of inhibition of intesity", "setting": "[2]; [11]", "result": 96.8, "unit": "%"}, {"measurement": "% of inhibition of velocity", "setting": "[2]; [11]", "result": 90.9, "unit": "%"}, {"measurement": "Intensity", "setting": "[2]; [11]", "result": 2.9, "unit": "%"}, {"measurement": "Velocity", "setting": "[2]; [11]", "result": 2.1, "unit": "%"}, {"measurement": "% of inhibition of intesity", "setting": "[2]; [12]", "result": 96.4, "unit": "%"}, {"measurement": "% of inhibition of velocity", "setting": "[2]; [12]", "result": 93.4, "unit": "%"}, {"measurement": "Intensity", "setting": "[2]; [12]", "result": 2.8, "unit": "%"}, {"measurement": "Velocity", "setting": "[2]; [12]", "result": 1.1, "unit": "%"}, {"measurement": "% of inhibition of intesity", "setting": "[2]; [13]", "result": 0, "unit": "%"}, {"measurement": "% of inhibition of velocity", "setting": "[2]; [13]", "result": 0, "unit": "%"}, {"measurement": "Intensity", "setting": "[2]; [13]", "result": 78.6, "unit": "%"}, {"measurement": "Velocity", "setting": "[2]; [13]", "result": 35, "unit": "%"}, {"measurement": "% of inhibition of intesity", "setting": "[2]; [14]", "result": 5, "unit": "%"}, {"measurement": "% of inhibition of velocity", "setting": "[2]; [14]", "result": 0, "unit": "%"}, {"measurement": "Intensity", "setting": "[2]; [14]", "result": 74.5, "unit": "%"}, {"measurement": "Velocity", "setting": "[2]; [14]", "result": 34, "unit": "%"}, {"measurement": "% of inhibition of intesity", "setting": "[2]; [15]", "result": 7.1, "unit": "%"}, {"measurement": "% of inhibition of velocity", "setting": "[2]; [15]", "result": 53.6, "unit": "%"}, {"measurement": "Intensity", "setting": "[2]; [15]", "result": 73, "unit": "%"}, {"measurement": "Velocity", "setting": "[2]; [15]", "result": 15.9, "unit": "%"}, {"measurement": "% of inhibition of intesity", "setting": "[2]; [16]", "result": 78.8, "unit": "%"}, {"measurement": "% of inhibition of velocity", "setting": "[2]; [16]", "result": 88, "unit": "%"}, {"measurement": "Intensity", "setting": "[2]; [16]", "result": 16.6, "unit": "%"}, {"measurement": "Velocity", "setting": "[2]; [16]", "result": 4.2, "unit": "%"}, {"measurement": "% of inhibition of intesity", "setting": "[2]; [17]", "result": 91, "unit": "%"}, {"measurement": "% of inhibition of velocity", "setting": "[2]; [17]", "result": 92, "unit": "%"}, {"measurement": "Intensity", "setting": "[2]; [17]", "result": 6.8, "unit": "%"}, {"measurement": "Velocity", "setting": "[2]; [17]", "result": 2.7, "unit": "%"}, {"measurement": "% of inhibition of intensity", "setting": "[2]; [18]", "result": 30, "unit": "%"}, {"measurement": "% of inhibition of velocity", "setting": "[2]; [18]", "result": 42.5, "unit": "%"}, {"measurement": "Intensity", "setting": "[2]; [18]", "result": 42.8, "unit": "%"}, {"measurement": "Velocity", "setting": "[2]; [18]", "result": 7.8, "unit": "%"}, {"measurement": "% of inhibition of intensity", "setting": "[2]; [19]", "result": 46, "unit": "%"}, {"measurement": "% of inhibition of velocity", "setting": "[2]; [19]", "result": 51, "unit": "%"}, {"measurement": "Intensity", "setting": "[2]; [19]", "result": 22, "unit": "%"}, {"measurement": "Velocity", "setting": "[2]; [19]", "result": 5.39, "unit": "%"}, {"measurement": "Effect on the aggregation of platelets induced by type III collagen", "setting": "[2]; Tables I and II", "result": "strong inhibitory effect"}]}
